PubChem BioAssay AID624291 (National Center for Advancing Translational Sciences (NCATS), 2012)
Out of some 350,000 compounds screened, about 220 (0.063%) were called active. Inconclusive means that the source gave no clear call. Such entries were picked first, then a sample of the others. Calls follow the shape of the dose curve; as a rule, active = well fitted activation curve with a large enough effect; inconclusive = small, poorly fitted or top-dose-only effect; inactive = no such curve, though single readings can be large or run the other way. Where the call is inconclusive, the potency comes from a doubtful curve fit.

assay: qHTS for Activators of Integrin-Mediated Alleviation for Muscular Dystrophy; settings: alpha7betagal myoblasts, beta-gal FDG fluorescence, 48 h; series mostly up to 38.3 µM; also: nearly all actives have a fitted effect of over 60% in size
Summary of the method: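 alpha7betagal+/- myoblasts (passage 13, 250/well) treated 48 h at 37C with compounds at 1:260 dilution of DMSO stock. Lysed, then beta-galactosidase activity read as FDG fluorescence (ex 480/em 540) after 30 min, with pre-read for autofluorescence.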
Potency is read from the fitted curve at half-maximal effect.

Potency, inactive:
O=C(c1ccccc1)N1N=C(C(F)(F)F)CC1(O)c1ccccc1 (stereo not given)
O=C(/C=C/c1ccc([N+](=O)[O-])cc1)c1cccnc1
Cn1c(NCc2c[nH]c3ccccc23)nc2ccccc21
CCCCCCNc1nc(-c2ccc(OC)cc2)c(CCC(=O)O)s1
CCCCN(CC)CCCNC(=O)c1ccc(CS(=O)(=O)c2c(Cl)cccc2Cl)o1
O=C(COC(=O)Cn1[nH]c(=O)c2ccccc2c1=O)NNC(=O)c1ccc(Br)cc1
CN(C)C(CNC(=O)c1cccs1)c1ccco1 (stereo not given)
CS(=O)(=O)c1ccc(Cl)c(NC(=O)c2cc(S(=O)(=O)N3CCOCC3)ccc2N2CCCC2)c1

Potency, inconclusive:
Cc1ccc(C(NC(=O)N2CCOCC2)C(Cl)Cl)cc1F (stereo not given) 3.16 µM [activator, full curve, poor fit]
O=C(O)CCc1ccc(S(=O)(=O)Nc2ccccc2C(=O)NCCc2ccccc2)cc1 1 µM [activator, full curve, poor fit]
CCOC(=O)/C=C/C(=O)Nc1ccc(S(=O)(=O)Nc2cc(C)on2)cc1 5.01 µM [activator, single point]
COc1ccc(OCC(=O)OCC(=O)N2C(C)CCCC2C)cc1 (stereo not given) 1 µM [activator, partial curve, poor fit]
CCN1CCN(c2cc(C)c3cc(NC(=O)CCC(=O)Nc4ccc(OC)cc4OC)ccc3n2)CC1 28.2 µM [activator, single point]
NC(=S)N/N=C/c1ccccc1OC(=O)/C=C/c1ccccc1 2 µM [activator, partial curve, poor fit]
CC(C)[C@H](NC(=O)OC(C)(C)C)C(=O)N1CCC(C(=O)N[C@@H](C)C(=O)Nc2ccc(F)cc2)CC1 2.82 µM [activator, single point]
COc1ccc(NC(=O)C2CCN(c3cnccn3)CC2)cc1Cl 28.2 µM [activator, single point]
COc1cc(/C=C2\NC(=O)NC2=O)cc(Br)c1OC 5.01 µM [activator, single point]
O=C(COC(=O)/C=C/c1cccc(Br)c1)Nc1cccc(S(=O)(=O)NC2=NCCC2)c1 5.01 µM [activator, single point]
O=C(N/N=C/c1cc(Br)c(O)c(Br)c1)c1cccnc1 3.98 µM [activator, single point]
O=C(O)/C=C/C(=O)N1CCN(C(c2ccccc2)c2ccccc2)CC1 0.398 µM [activator, partial curve, poor fit]

Three structures already listed, sorted by SMILES length, falling:
Potency, inconclusive:
CCN1CCN(c2cc(C)c3cc(NC(=O)CCC(=O)Nc4ccc(OC)cc4OC)ccc3n2)CC1 28.2 µM [activator, single point]
O=C(O)/C=C/C(=O)N1CCN(C(c2ccccc2)c2ccccc2)CC1 0.398 µM [activator, partial curve, poor fit]
COc1ccc(OCC(=O)OCC(=O)N2C(C)CCCC2C)cc1 (stereo not given) 1 µM [activator, partial curve, poor fit]
